Data published in the supplement of paper PMC12823440, “Inhibitors supercharge kinase turnover through native proteolytic circuits” (Nature, 2025).
Counter-ions that a name gives are not always drawn. Some of the results follow. The calls rarely recur for the same compound in another form.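 In K562 cells expressing nanoluciferase-fused kinases, luminescence was recorded at 4 h intervals between 2 and 18 h, normalized as percent of control with DMSO at 100% and a positive control at 0%. A significant (2 sigma) signal drop marks a time point as decreased. The authors' rule for a hit is not shown and takes in more than the number of time points.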

Chains of the proteins cited; added tags and fusions are not shown. Lines headed by an entry give the natural chain unless they say otherwise; changes in a name come on top.
UniProt O75460: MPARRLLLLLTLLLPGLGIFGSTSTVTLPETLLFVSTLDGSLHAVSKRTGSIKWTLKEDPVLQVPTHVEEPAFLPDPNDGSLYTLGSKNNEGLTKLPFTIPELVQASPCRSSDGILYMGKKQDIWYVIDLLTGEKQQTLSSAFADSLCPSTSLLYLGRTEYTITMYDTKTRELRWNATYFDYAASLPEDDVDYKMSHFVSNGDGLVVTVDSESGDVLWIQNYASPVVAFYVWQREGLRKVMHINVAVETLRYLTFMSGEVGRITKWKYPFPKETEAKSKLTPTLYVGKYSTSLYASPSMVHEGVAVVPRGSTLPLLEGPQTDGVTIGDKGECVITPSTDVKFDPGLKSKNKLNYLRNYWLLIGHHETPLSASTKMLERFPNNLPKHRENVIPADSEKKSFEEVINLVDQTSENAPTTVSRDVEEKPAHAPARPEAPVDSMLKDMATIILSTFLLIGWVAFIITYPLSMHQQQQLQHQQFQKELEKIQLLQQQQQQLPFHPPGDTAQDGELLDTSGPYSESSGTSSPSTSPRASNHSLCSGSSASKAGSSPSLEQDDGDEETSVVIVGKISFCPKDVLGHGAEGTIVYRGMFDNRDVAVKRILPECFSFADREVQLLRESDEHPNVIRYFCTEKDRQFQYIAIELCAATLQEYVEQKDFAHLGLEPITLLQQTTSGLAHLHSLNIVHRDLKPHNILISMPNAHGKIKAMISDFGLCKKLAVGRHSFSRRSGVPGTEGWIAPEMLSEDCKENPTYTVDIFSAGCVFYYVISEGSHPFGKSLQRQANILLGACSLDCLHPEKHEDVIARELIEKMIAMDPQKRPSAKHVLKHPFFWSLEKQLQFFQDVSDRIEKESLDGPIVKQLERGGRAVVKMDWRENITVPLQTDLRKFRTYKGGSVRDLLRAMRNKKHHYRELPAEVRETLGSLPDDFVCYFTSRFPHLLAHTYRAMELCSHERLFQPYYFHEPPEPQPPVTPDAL
UniProt P06241, whole entry, looked up: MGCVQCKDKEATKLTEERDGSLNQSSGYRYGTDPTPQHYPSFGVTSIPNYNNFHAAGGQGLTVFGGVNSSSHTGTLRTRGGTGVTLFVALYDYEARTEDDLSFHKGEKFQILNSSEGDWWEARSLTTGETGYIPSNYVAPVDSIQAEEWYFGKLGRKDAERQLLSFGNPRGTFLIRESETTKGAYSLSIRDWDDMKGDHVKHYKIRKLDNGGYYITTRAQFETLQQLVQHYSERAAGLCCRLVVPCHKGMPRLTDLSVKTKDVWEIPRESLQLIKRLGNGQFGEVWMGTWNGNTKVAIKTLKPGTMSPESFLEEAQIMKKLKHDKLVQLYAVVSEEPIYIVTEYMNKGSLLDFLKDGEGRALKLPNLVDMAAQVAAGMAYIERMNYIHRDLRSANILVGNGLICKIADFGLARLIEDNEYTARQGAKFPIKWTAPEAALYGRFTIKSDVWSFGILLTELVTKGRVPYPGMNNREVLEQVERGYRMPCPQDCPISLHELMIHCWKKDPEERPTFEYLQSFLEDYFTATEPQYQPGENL
UniProt P49840: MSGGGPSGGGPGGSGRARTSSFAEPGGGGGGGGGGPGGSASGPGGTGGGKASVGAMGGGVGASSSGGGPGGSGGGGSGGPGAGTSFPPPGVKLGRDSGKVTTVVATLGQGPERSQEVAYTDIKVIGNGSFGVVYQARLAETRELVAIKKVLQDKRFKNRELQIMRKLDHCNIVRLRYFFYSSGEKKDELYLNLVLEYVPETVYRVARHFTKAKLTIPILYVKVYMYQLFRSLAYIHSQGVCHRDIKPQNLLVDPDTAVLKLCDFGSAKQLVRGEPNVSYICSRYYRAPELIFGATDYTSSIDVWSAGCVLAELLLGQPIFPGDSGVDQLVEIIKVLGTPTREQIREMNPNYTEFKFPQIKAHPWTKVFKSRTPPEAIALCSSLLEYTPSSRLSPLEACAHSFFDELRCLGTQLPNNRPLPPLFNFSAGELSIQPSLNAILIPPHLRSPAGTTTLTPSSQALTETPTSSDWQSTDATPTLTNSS
UniProt P14616: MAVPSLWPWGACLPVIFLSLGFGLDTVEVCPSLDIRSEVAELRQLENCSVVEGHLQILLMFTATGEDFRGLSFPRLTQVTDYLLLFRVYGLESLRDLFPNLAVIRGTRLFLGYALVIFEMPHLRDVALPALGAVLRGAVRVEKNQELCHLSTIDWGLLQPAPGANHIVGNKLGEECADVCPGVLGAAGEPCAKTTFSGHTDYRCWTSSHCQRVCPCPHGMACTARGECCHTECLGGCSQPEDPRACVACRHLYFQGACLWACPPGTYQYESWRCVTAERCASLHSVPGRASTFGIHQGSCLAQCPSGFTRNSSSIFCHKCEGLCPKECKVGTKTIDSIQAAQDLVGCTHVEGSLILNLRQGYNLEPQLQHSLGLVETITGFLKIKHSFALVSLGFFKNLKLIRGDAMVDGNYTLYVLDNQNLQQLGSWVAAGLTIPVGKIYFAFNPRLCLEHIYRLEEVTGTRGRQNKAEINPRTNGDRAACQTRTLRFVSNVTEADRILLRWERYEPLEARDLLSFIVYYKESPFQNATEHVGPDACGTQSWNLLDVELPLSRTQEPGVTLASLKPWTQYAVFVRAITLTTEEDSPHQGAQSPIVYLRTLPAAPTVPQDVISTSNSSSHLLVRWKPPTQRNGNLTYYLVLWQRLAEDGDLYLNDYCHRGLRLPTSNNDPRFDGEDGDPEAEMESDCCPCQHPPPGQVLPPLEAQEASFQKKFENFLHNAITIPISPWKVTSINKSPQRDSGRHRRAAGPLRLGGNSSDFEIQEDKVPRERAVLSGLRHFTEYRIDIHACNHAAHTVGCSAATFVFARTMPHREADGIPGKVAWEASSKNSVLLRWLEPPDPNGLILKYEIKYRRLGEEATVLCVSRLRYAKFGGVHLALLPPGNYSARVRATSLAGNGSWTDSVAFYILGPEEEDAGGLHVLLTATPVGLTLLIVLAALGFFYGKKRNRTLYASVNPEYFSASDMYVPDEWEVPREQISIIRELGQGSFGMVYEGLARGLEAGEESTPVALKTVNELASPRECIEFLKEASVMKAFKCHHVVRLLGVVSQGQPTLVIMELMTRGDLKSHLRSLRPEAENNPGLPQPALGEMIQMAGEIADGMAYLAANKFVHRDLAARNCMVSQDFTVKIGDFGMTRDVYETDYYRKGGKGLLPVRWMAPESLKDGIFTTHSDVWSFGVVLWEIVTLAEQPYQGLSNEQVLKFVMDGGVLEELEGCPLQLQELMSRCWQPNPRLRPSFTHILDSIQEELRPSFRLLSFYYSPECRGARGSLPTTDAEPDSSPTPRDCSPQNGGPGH
UniProt Q9Y616: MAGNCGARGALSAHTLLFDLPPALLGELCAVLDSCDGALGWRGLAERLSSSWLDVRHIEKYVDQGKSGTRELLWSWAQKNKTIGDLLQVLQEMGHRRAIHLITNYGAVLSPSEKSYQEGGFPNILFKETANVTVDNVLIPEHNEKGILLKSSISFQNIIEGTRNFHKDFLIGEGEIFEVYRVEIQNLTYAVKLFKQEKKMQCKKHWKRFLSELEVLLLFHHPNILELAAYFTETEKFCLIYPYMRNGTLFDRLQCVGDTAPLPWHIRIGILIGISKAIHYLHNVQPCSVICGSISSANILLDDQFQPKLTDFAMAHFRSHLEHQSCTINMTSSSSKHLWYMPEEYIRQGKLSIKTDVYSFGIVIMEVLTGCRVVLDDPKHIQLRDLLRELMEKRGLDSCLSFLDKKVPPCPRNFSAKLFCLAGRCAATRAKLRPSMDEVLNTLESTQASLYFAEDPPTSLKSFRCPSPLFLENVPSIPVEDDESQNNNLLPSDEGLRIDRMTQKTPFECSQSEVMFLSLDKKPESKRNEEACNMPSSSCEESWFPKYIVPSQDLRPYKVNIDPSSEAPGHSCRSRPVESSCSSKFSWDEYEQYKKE
UniProt P53667: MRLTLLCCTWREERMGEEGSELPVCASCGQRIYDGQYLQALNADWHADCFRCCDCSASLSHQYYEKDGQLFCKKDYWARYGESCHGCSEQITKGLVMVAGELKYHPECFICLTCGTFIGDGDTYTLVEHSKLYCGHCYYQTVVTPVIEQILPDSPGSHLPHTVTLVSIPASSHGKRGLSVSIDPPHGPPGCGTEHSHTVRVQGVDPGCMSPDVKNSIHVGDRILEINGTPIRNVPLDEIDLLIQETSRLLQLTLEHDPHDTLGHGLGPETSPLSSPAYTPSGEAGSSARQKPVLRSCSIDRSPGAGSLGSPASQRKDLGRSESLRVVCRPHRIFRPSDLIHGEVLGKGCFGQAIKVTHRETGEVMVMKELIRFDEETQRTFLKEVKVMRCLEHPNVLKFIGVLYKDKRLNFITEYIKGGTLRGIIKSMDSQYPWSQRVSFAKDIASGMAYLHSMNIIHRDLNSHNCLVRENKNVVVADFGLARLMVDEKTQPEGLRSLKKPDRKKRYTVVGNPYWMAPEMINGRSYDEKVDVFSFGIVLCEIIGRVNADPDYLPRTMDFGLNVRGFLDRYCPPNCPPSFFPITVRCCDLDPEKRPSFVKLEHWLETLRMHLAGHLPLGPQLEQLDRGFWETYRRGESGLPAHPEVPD
UniProt P53671: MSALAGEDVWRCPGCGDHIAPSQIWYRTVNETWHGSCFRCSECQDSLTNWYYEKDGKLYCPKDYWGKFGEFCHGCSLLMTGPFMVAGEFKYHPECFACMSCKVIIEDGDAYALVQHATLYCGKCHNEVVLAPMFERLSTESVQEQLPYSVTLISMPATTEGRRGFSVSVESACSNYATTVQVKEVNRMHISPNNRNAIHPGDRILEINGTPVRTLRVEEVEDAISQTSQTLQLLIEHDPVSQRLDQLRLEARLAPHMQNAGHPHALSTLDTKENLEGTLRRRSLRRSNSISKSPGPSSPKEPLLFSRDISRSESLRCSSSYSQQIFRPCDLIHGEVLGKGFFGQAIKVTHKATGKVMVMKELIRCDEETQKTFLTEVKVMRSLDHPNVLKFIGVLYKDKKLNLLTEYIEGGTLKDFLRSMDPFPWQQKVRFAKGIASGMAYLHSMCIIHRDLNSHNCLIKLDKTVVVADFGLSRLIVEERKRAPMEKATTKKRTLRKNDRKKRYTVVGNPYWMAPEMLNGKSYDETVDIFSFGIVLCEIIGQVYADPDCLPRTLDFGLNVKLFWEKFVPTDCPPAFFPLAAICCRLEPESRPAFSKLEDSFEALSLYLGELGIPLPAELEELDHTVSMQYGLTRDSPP
UniProt P07948: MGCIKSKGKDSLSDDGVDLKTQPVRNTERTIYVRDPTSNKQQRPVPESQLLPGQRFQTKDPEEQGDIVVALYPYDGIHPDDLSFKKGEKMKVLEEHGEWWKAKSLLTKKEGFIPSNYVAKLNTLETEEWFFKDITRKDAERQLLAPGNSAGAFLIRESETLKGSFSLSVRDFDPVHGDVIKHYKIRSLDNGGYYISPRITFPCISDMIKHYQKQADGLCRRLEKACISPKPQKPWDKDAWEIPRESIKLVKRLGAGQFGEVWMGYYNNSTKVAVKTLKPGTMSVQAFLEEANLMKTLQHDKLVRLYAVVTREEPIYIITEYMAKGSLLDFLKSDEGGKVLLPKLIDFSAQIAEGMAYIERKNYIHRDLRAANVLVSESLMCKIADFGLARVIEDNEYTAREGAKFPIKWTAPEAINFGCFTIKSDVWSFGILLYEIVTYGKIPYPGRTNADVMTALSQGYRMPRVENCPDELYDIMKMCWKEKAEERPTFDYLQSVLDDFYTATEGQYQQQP
UniProt Q12851: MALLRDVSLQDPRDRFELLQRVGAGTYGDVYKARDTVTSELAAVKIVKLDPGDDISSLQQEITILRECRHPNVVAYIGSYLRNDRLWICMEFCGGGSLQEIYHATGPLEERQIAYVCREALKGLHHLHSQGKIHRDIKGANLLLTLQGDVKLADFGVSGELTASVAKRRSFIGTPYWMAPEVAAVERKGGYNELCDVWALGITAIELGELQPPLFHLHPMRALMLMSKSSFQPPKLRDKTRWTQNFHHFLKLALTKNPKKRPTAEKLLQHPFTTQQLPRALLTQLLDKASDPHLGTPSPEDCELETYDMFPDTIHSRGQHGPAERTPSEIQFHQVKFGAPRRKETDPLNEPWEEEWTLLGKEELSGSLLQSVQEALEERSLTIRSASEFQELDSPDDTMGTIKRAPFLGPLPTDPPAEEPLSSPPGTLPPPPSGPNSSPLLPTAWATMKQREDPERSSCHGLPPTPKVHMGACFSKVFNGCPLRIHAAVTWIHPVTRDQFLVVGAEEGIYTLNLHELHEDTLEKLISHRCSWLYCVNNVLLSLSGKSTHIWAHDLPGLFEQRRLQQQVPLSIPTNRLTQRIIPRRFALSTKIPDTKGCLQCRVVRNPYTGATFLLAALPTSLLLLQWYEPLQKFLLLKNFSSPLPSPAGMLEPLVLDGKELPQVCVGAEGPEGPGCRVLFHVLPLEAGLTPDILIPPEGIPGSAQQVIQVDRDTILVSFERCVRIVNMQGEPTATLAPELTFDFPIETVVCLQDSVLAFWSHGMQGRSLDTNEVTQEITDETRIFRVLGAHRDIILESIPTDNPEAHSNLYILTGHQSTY

What was measured:
Assay in all cases: kinase-Nluc reporter destabilization hit call (1 = scored as downregulated) (binary); higher = compound decreases kinase abundance
Conditions in all cases: K562; 2-18 h
[1] = target: ERN1 (UniProt O75460)
[2] = target: FGFR1 (UniProt P11362)
[3] = target: FGFR2 (UniProt P21802)
[4] = target: FGFR3 (UniProt P22607)
[5] = target: FGR (UniProt P09769)
[6] = target: FLT3 (UniProt P36888)
[7] = target: FYN (UniProt P06241)
[8] = target: GSK3A (UniProt P49840)
[9] = target: HER2 (UniProt P04626)
[10] = target: INSRR (UniProt P14616)
[11] = target: IRAK3 (UniProt Q9Y616)
[12] = target: JAK1 (UniProt P23458)
[13] = target: LCK (UniProt P06239)
[14] = target: LIMK1 (UniProt P53667)
[15] = target: LIMK2 (UniProt P53671)
[16] = target: LMTK2 (UniProt Q8IWU2)
[17] = target: LYN (UniProt P07948)
[18] = target: MAP2K1 (UniProt Q02750)
[19] = target: MAP2K2 (UniProt P36507)
[20] = target: MAP4K2 (UniProt Q12851)

Measured: kinase-Nluc reporter destabilization hit call

Cc1ccc(-c2csc(Cn3nc(CC4OCCCO4)c4ccccc4c3=O)n2)cc1 (10 µM)
inactive: [1] 0 | [2] 0 | [3] 0 | [4] 0 | [5] 0 | [6] 0 | [7] 0 | [8] 0 | [9] 0 | [10] 0 | [11] 0 | [12] 0 | [13] 0 | [14] 0 | [15] 0 | [16] 0 | [17] 0 | [18] 0 | [19] 0 | [20] 0

O=c1cc(-c2ccc(O)cc2)oc2cc(O)c([C@@H]3O[C@H](CO)[C@@H](O)[C@H](O)[C@H]3O)c(O)c12 [Isovitexin] (10 µM)
inactive: [1] 0 | [2] 0 | [3] 0 | [4] 0 | [5] 0 | [6] 0 | [7] 0 | [8] 0 | [9] 0 | [10] 0 | [11] 0 | [12] 0 | [13] 0 | [14] 0 | [15] 0 | [16] 0 | [17] 0 | [18] 0 | [19] 0 | [20] 0

C[C@@H](N)COc1ccc(-c2cnc3ccc(N[C@H](C)c4cccc(F)c4)nn23)cc1 [Taletrectinib] (2.5 µM)
inactive: [1] 0 | [2] 0 | [3] 0 | [4] 0 | [5] 0 | [6] 0 | [7] 0 | [8] 0 | [9] 0 | [10] 0 | [11] 0 | [12] 0 | [13] 0 | [14] 0 | [15] 0 | [16] 0 | [17] 0 | [18] 0 | [19] 0 | [20] 0

Cn1cc(C2=C(c3c4n(c5ccccc35)CCC(CN)C4)C(=O)NC2=O)c2ccccc21 (stereo not given) [Bisindolylmaleimide X (hydrochloride)] (2.5 µM)
inactive: [1] 0 | [2] 0 | [3] 0 | [4] 0 | [5] 0 | [6] 0 | [7] 0 | [8] 0 | [9] 0 | [10] 0 | [11] 0 | [12] 0 | [13] 0 | [14] 0 | [15] 0 | [16] 0 | [17] 0 | [18] 0 | [19] 0 | [20] 0

O=C(CC(c1ccccc1)C(C(=O)O)C(=O)O)c1ccc(C(F)(F)F)cc1 (stereo not given) (10 µM)
inactive: [1] 0 | [2] 0 | [3] 0 | [4] 0 | [5] 0 | [6] 0 | [7] 0 | [8] 0 | [9] 0 | [10] 0 | [11] 0 | [12] 0 | [13] 0 | [14] 0 | [15] 0 | [16] 0 | [17] 0 | [18] 0 | [19] 0 | [20] 0

NC(=O)c1cccc2c(N[C@H](CN3CCC3)c3ccc(Cl)c(C(F)(F)F)c3)ncnc12 (10 µM)
inactive: [1] 0 | [2] 0 | [3] 0 | [4] 0 | [5] 0 | [6] 0 | [7] 0 | [8] 0 | [9] 0 | [10] 0 | [11] 0 | [12] 0 | [13] 0 | [14] 0 | [15] 0 | [16] 0 | [17] 0 | [18] 0 | [19] 0 | [20] 0

O=c1ccc2cc(O)c(O)cc2o1 [Esculetin] (10 µM)
inactive: [1] 0 | [2] 0 | [3] 0 | [4] 0 | [5] 0 | [6] 0 | [7] 0 | [8] 0 | [9] 0 | [10] 0 | [11] 0 | [12] 0 | [13] 0 | [14] 0 | [15] 0 | [16] 0 | [17] 0 | [18] 0 | [19] 0 | [20] 0

COc1cccc2cc(-c3nc([C@H]4CC[C@H](C(=O)O)CC4)n4ncnc(N)c34)[nH]c12 (2.5 µM)
inactive: [1] 0 | [2] 0 | [3] 0 | [4] 0 | [5] 0 | [6] 0 | [7] 0 | [8] 0 | [9] 0 | [10] 0 | [11] 0 | [12] 0 | [13] 0 | [14] 0 | [15] 0 | [16] 0 | [17] 0 | [18] 0 | [19] 0 | [20] 0

Cn1cc(-c2ccc3ncc(Cc4ccc5ncccc5c4)n3n2)cn1 (10 µM)
inactive: [1] 0 | [2] 0 | [3] 0 | [4] 0 | [5] 0 | [6] 0 | [7] 0 | [8] 0 | [9] 0 | [10] 0 | [11] 0 | [12] 0 | [13] 0 | [14] 0 | [15] 0 | [16] 0 | [17] 0 | [18] 0 | [19] 0 | [20] 0

C[C@@H]1CC[C@]2(C(=O)O)CC[C@]3(C)C(=CC[C@@H]4[C@@]5(C)CC[C@H](O)[C@@](C)(CO)[C@@H]5CC[C@]43C)[C@@H]2[C@]1(C)O [Rotundic acid] (10 µM)
inactive: [1] 0 | [2] 0 | [3] 0 | [4] 0 | [5] 0 | [6] 0 | [7] 0 | [8] 0 | [9] 0 | [10] 0 | [11] 0 | [12] 0 | [13] 0 | [14] 0 | [15] 0 | [16] 0 | [17] 0 | [18] 0 | [19] 0 | [20] 0

CNC(=O)c1ccc(-c2cnc3ncc(Cc4ccc5ncccc5c4)n3n2)cc1F [Capmatinib] (10 µM)
inactive: [1] 0 | [2] 0 | [3] 0 | [4] 0 | [5] 0 | [6] 0 | [7] 0 | [8] 0 | [9] 0 | [10] 0 | [11] 0 | [12] 0 | [13] 0 | [14] 0 | [15] 0 | [16] 0 | [17] 0 | [18] 0 | [19] 0 | [20] 0

Cc1cccc(Cn2nc(C)c3c(NC(=O)c4csc5c(N)ncnc45)cccc32)n1 (10 µM)
inactive: [1] 0 | [2] 0 | [3] 0 | [4] 0 | [5] 0 | [6] 0 | [7] 0 | [8] 0 | [9] 0 | [10] 0 | [11] 0 | [12] 0 | [13] 0 | [14] 0 | [15] 0 | [16] 0 | [17] 0 | [18] 0 | [19] 0 | [20] 0

C1=N/C2=N/c3ccc(OCCN4CCCC4)c(c3)COC/C=C/COCc3cccc(c3)C(=C1)N2 [Pacritinib] (2.5 µM)
inactive: [1] 0 | [2] 0 | [3] 0 | [4] 0 | [5] 0 | [6] 0 | [7] 0 | [8] 0 | [9] 0 | [10] 0 | [11] 0 | [12] 0 | [13] 0 | [14] 0 | [15] 0 | [16] 0 | [17] 0 | [18] 0 | [19] 0 | [20] 0

CCc1ccc(NC(=O)Nc2ccccc2)cc1 (10 µM)
inactive: [1] 0 | [2] 0 | [3] 0 | [4] 0 | [5] 0 | [6] 0 | [7] 0 | [8] 0 | [9] 0 | [10] 0 | [11] 0 | [12] 0 | [13] 0 | [14] 0 | [15] 0 | [16] 0 | [17] 0 | [18] 0 | [19] 0 | [20] 0

Quoted from the listing (2 entries):
O=c1ccc2cc(O)c(O)cc2o1 [Esculetin] (10 µM)
inactive: [1] 0 | [2] 0 | [3] 0 | [4] 0 | [5] 0 | [6] 0 | [7] 0 | [8] 0 | [9] 0 | [10] 0 | [11] 0 | [12] 0 | [13] 0 | [14] 0 | [15] 0 | [16] 0 | [17] 0 | [18] 0 | [19] 0 | [20] 0

COc1cccc2cc(-c3nc([C@H]4CC[C@H](C(=O)O)CC4)n4ncnc(N)c34)[nH]c12 (2.5 µM)
inactive: [1] 0 | [2] 0 | [3] 0 | [4] 0 | [5] 0 | [6] 0 | [7] 0 | [8] 0 | [9] 0 | [10] 0 | [11] 0 | [12] 0 | [13] 0 | [14] 0 | [15] 0 | [16] 0 | [17] 0 | [18] 0 | [19] 0 | [20] 0

Continuation.

CCC(=O)N1CC[C@H](Nc2ncnc3c2CN(c2cnc(OC)c(C(F)(F)F)c2)CC3)C1 [Leniolisib] (10 µM)
inactive: [1] 0 | [2] 0 | [3] 0 | [4] 0 | [5] 0 | [6] 0 | [7] 0 | [8] 0 | [9] 0 | [10] 0 | [11] 0 | [12] 0 | [13] 0 | [14] 0 | [15] 0 | [16] 0 | [17] 0 | [18] 0 | [19] 0 | [20] 0

O=C(N=c1sccn1Cc1ccccc1)c1c[nH]c2ncccc12 (10 µM)
inactive: [1] 0 | [2] 0 | [3] 0 | [4] 0 | [5] 0 | [6] 0 | [7] 0 | [8] 0 | [9] 0 | [10] 0 | [11] 0 | [12] 0 | [13] 0 | [14] 0 | [15] 0 | [16] 0 | [17] 0 | [18] 0 | [19] 0 | [20] 0

COC(=O)c1cc2c(OC(C)C)cc(OC(C)C)cc2[nH]1 (2.5 µM)
inactive: [1] 0 | [2] 0 | [3] 0 | [4] 0 | [5] 0 | [6] 0 | [7] 0 | [8] 0 | [9] 0 | [10] 0 | [11] 0 | [12] 0 | [13] 0 | [14] 0 | [15] 0 | [16] 0 | [17] 0 | [18] 0 | [19] 0 | [20] 0
